## Results of single-concentration screens

Sequences of proteins named here, by UniProt entry; tags and fusion partners are left off. Residues count along the entry.
UniProt P9WPC5, whole entry: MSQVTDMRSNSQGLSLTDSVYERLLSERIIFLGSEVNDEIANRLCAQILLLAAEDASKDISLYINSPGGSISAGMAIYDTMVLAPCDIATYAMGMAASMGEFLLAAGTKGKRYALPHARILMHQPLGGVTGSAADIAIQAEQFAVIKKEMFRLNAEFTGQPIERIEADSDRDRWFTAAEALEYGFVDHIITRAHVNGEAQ
UniProt P9WPC3, whole entry partner: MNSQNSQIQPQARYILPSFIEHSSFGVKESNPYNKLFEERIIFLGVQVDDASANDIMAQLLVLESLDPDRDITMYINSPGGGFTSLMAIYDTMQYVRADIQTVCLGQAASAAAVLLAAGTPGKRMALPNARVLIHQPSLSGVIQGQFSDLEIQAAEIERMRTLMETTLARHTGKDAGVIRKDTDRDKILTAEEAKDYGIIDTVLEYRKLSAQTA
UniProt P9WNZ1, whole entry: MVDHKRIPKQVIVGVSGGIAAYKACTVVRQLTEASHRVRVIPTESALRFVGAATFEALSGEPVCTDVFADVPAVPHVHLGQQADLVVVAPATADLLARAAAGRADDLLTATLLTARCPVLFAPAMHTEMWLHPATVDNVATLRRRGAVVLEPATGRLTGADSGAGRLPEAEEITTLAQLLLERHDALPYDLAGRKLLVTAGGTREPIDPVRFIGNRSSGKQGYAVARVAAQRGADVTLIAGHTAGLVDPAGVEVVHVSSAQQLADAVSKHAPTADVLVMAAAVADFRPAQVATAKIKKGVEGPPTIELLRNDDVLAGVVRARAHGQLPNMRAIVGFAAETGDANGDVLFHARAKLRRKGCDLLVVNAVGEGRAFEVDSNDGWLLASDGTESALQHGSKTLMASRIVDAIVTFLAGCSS
UniProt A4I591, 1-473: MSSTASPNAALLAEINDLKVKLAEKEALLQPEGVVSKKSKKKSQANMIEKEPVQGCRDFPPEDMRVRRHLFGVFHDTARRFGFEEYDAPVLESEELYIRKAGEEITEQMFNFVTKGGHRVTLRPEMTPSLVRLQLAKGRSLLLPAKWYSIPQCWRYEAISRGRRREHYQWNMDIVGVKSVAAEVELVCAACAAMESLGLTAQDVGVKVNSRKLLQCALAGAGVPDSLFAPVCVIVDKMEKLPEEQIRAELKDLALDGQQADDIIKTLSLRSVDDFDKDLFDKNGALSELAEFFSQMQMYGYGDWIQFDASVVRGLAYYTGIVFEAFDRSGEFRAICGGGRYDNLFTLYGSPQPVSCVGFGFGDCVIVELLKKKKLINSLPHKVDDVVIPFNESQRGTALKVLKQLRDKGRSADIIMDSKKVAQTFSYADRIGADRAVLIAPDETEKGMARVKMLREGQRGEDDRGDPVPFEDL

Results are given as percent effect.
The record does not define 0% and 100%; most values in the screen are far below 50% and negative numbers occur (in some assays of this library far below -100).
This is an unselected part of the compounds tested.
Two or more numbers in one place are separate tests of the same structure; such repeats can differ widely.
A dash means the value is not listed here; it may have been measured.

A: 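ClpP1P2, Mycobacterium tuberculosis (UniProt P9WPC5 and UniProt P9WPC3). Protease assay of ClpP1P2, read by the AMC dye that it sets free. Tested at 50 µM. Direction is inferred from only a few compounds that gave an IC50; most scored high, so higher reads as stronger inhibition. Most other retested compounds had strongly negative values. Size under these conditions: about 69,000 compounds, about 10 of them at 50% or above in at least one test.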
B: 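Coenzyme A biosynthesis protein CoaBC, Mycobacterium tuberculosis (UniProt P9WNZ1). Enzyme assay of CoaBC with a phosphate dye (Biomol Green) read at 650 nm. Concentration: 30 µM. Direction is inferred from only a few compounds that gave an IC50; most scored high, so higher reads as stronger inhibition. Most strong results did not repeat in a second test. Size under these conditions: about 67,000 compounds, about 40 of them at 50% or above in at least one test.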
C: 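Cell assay of Leishmania donovani living inside macrophages; the read-out is not stated. Compounds at 30 µM. Direction is inferred from retests: higher values go with stronger inhibition. Size under these conditions: about 69,000 compounds, about 1,000 of them at 50% or above in at least one test.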
D: 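Histidine-tRNA ligase, Leishmania infantum (UniProt A4I591). Enzyme assay of histidyl-tRNA synthetase; the read-out is not stated. Concentration: 30 µM. The record gives no direction; compounds that gave an IC50 in retests scored well above the rest, so higher reads as stronger inhibition. The assay is labelled LdHisRS but filed under L. infantum. Of about 69,000 compounds tested this way, about 410 (0.6%) reached 50% or more in at least one test.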

SMILES,A,B,C,D
CC(C)CN1CC[C@H](c2nnc(COc3ccc(F)cc3)o2)C1,-8.629,10.16,2.903,19.44
Cc1cccc(CNCCOc2ccc(S(C)(=O)=O)cc2)c1,-15.39,1.818,34.18,14.52
Cc1cccc(Cn2cc(C)c(N)n2)c1,-6.383,-3.313,-4.978,8.247
CN(Cc1cncnc1)[C@@H]1CN(C(=O)c2ccco2)[C@@H]2CCCO[C@H]12,6.563,2.963,-,17.27
COC(=O)[C@@H]1CCCN1C(=O)c1cn(CCCc2ccccc2)nn1,-11.14,1.272,38.87 and 15.96,17.95
CCc1n[nH]c(C2CN(C(=O)c3ccc(Cl)cn3)CCO2)n1 (stereo not drawn),-3.147,3.584,12.14,1.923
O=C(O)C(F)(F)F.[H][C@]12CCN(c3ncccn3)[C@@]1([H])CC[C@@H](COCc1csc(C)n1)O2,-,-,5.967,-
COc1ccccc1OCCCN1C(=O)CCNC1=O,20.04,-0.9709,-68.9,7.143
CNC(=O)C1CCCN(c2nc3c(-c4ccccc4)csc3c(=O)[nH]2)C1 (stereo not drawn),14.35,-9.937,-2.362 and 6.305,10.43
CN(CC(F)(F)F)C(=O)CNC(=O)N1CCCC(C(F)(F)F)C1 (stereo not drawn),1.674,-0.4854,13.47,14.29
Cc1cccc(C)c1NC(=O)CN(C)C(C)c1nc(C(C)(C)C)no1 (stereo not drawn),6.469,8.835,-56.96,22.22
Cn1cc(CCNC(=O)C2(c3cccc(Cl)c3)CC2)cn1,4.36,2.418,11.63,17.14
CCNc1ncc(C(=O)NC2COC3(CCCC3)C2)cn1 (stereo not drawn),-12.5,1.474,24,17.2
O=C(c1cc(C2CC2)[nH]n1)N1CCN(Cc2ccc3c(c2)OCO3)CC1,-13,8.772,25.89,5.357
Cc1nc(CN2CC[C@@H]3O[C@@H](C(=O)N4CCOCC4)C[C@@H]32)cs1,10.12,2.353,-,17.43
CNc1nc(C)c(C(=O)N2CCCCC2CCc2ccccc2)s1 (stereo not drawn),-2.927,7.298,8.789,18.18
O=C(C1CCCO1)N1CCCn2c(nnc2Cn2ccnc2)C1 (stereo not drawn),-6.494,-,-,10.34
CCN(CCO)C(=O)C1CCC(=O)N(Cc2cccc(OC)c2)C1 (stereo not drawn),-4.715,1.491,14.06,11.11
CC(=O)NCCC(=O)NCc1cccnc1-n1cnc2ccccc21,-14.42,6.579,22.46,5.714
CC(C)(C)n1ncc2c(=O)[nH]c(N3CC(O)C3)nc21,-0.3536,1.364,17.09,13.7
CN(C)c1ccc(-c2nnc([C@H]3CCN(C4CCCCC4)C3)o2)cc1,-5.024,6.843,20.67,17.57
CCC(Nc1nnnn1-c1ccccc1)C(=O)NCc1ccsc1 (stereo not drawn),13.53,11.76,17.06,12.82
CN(Cc1ccco1)Cc1cncc2c1CCN(Cc1ccoc1)C2.Cl.Cl.Cl,-,-,36.22,-
CCc1nc(CC(=O)N2CCC(C(=O)N3CCCC3)CC2)cs1,-11.05,-3.187,4.096,10.96
COc1ccc(NC(=O)Nc2c(O)c3ccccc3oc2=O)cc1,17.98,-2.503,-11.68,9.589
CSCCC(NC(N)=O)C(=O)NCc1c(C)nn(-c2ccccc2)c1C (stereo not drawn),9.923,-2.355,24.31,12.07
CN1CCC(CN(C)S(=O)(=O)CC2CCCCC2)CC1,-7.949,-46.15,-13.81,1.709
CCc1oc(C(=O)NC(C)Cc2cnccn2)cc1CN1CCCC1 (stereo not drawn),-11.42,6.148,6.018,8.434
Cc1nc(C)n(CC2CN(Cc3ccncc3)Cc3nccn3C2)n1 (stereo not drawn),1.971,-4.206,-,9.211
CCc1nc2n(n1)CC(NCc1cn(C)nc1-c1cccnc1)CC2 (stereo not drawn),3.146,4.637,0.1969,9.091
Cc1ccc(CN2CCC3(CC2)CC(NC(=O)c2ccccn2)CO3)o1 (stereo not drawn),-8.941,-1.895,9.914 and 4.174,13.27
[H][C@@]12CC(C)=CC[C@]1([H])CN(C(=O)c1ccnc(CCC)c1)C2,-,-,1.291,-
CS(=O)(=O)NC[C@]12COC[C@H]1CN(Cc1ccc3c(c1)OCO3)C2,3.035,1.114,-,11.88
O=c1oc(-c2ccccc2)nn1CN1CCC(N2CCCCC2)CC1,1.947,8.161,-15.24,16.13
OCCN1CCN(Cc2coc(-c3ccc(Cl)cc3)n2)CC1,4.081,2.892,44.44,2.74
COc1cc(CNCC(O)c2ccc(C)cc2)cc2c1OCO2 (stereo not drawn),-30.49,-0.7653,-,16.36
COc1cc(C(C#N)NC(=O)CC2=CCCCC2)cc(OC)c1OC (stereo not drawn),-0.5102,-0.6198,-15.65,8.219
Cc1cc(C)c(CCNC(=O)NCCCC(N)=O)c(C)c1,-2.622,-0.7968,2.124,8.219
Cc1cc(CN2CCN(C(=O)c3sccc3C3CC3)CC2)on1,-0.9668,-16.41,0.3794,5.333
CN1C[C@@H](n2cnc(-c3ccccc3)c2-c2ccccn2)C[C@H]1C(=O)O,1.068,-1.739,30.91,2.618
[H][C@]12CC[C@]([H])(CN(CC(=O)N(C)C)C1)N(Cc1c(Cl)cncc1Cl)C2,-,-,39.43,-
CC(C(=O)NCCOc1ccc(F)cc1)n1cncn1 (stereo not drawn),-11.49,2.887,14.46,15.25
COCC(=O)NC[C@H]1CC[C@H](c2nnc(-c3ccncc3)o2)CC1,-10.41,5.594,-12.06,7.092
Cc1cncc(C2CCCN(C(=O)c3c[nH]c(=O)[nH]c3=O)C2)n1 (stereo not drawn),1.755,4.581,-7.147,2.857
Cc1ccc(C(=O)N2CCCC3(C2)C(=O)N(C)c2ccccc23)c(=O)[nH]1 (stereo not drawn),-7.377,2.785,13.9,22.83
COC(C)c1noc(CN2CCCNCC2)n1 (stereo not drawn),3.11,2.174,35.8,9.091
COCC1(C(=O)N[C@H]2CN(c3nnc(C)s3)C[C@@H]2C2CC2)CCC1,-5.951,8.151,-14.3,-1.333

For reference, 6 entries once more:

SMILES,A,B,C,D
Cc1cc(C)c(CCNC(=O)NCCCC(N)=O)c(C)c1,-2.622,-0.7968,2.124,8.219
Cc1nc(CN2CC[C@@H]3O[C@@H](C(=O)N4CCOCC4)C[C@@H]32)cs1,10.12,2.353,-,17.43
COCC(=O)NC[C@H]1CC[C@H](c2nnc(-c3ccncc3)o2)CC1,-10.41,5.594,-12.06,7.092
COc1ccc(NC(=O)Nc2c(O)c3ccccc3oc2=O)cc1,17.98,-2.503,-11.68,9.589
CS(=O)(=O)NC[C@]12COC[C@H]1CN(Cc1ccc3c(c1)OCO3)C2,3.035,1.114,-,11.88
[H][C@]12CC[C@]([H])(CN(CC(=O)N(C)C)C1)N(Cc1c(Cl)cncc1Cl)C2,-,-,39.43,-

The values are deposited in ChEMBL (CHEMBL3988442, “University of Dundee, Small-Polar-MMV Screening Library” (2021)).